Measurements as given in patent publication US12479856B2, “Pharmaceutical compounds for the treatment of complement mediated disorders” (Achillion Pharmaceuticals, Inc., priority 2019, dated 2025).

Sequences of proteins named here, by UniProt entry; tags and fusion partners are left off. Residues count along the entry.
UniProt P09871, 438-688 limits assumed: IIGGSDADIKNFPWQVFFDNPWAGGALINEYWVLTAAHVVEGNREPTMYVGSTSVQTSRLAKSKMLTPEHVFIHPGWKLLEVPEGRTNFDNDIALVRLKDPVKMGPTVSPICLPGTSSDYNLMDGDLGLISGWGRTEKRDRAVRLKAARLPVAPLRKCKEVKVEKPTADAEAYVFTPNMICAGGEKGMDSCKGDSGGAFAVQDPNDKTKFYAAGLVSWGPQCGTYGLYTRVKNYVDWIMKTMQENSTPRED
UniProt P09871, 16-437 partner limits assumed: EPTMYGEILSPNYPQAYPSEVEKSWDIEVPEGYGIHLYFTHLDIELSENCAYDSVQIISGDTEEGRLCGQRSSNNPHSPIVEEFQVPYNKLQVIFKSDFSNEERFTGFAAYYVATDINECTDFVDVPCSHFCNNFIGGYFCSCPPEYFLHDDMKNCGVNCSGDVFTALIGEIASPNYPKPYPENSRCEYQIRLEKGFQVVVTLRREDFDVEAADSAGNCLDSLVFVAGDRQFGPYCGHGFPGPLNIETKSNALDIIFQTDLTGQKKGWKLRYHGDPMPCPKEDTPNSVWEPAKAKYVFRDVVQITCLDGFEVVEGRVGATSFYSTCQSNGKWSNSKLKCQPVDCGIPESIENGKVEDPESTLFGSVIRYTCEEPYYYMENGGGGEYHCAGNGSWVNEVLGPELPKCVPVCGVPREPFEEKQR

Biological target: Human complement C1s enzyme (Homo sapiens, UniProt P09871)
Assay: Human C1s Enzyme Assay
Settings: read-out: C1s Protease Activity; Table 3; C1s purified from human serum, 1.16 nM; substrate Z-L-Lys-SBzl
Description: Example 4. Human C1s Enzyme Assay
Human complement C1s enzyme (purified from human serum, Complement Technology, Inc.) at 1.16 nM final concentration is incubated with test compound at various concentrations for 5 min at room temperature in 50 mM Tris, 1 M NaCl, pH 7.5. A synthetic substrate Z-L-Lys-SBzl and DTNB (Ellman's reagent) are added to final concentrations of 100 μM each. Absorbance at 405 nm (A405) is recorded at 30 second intervals for 30 min using a microplate spectrophotometer. IC50 values are calculated by nonlinear regression of complement C1s reaction rates as a function of test compound concentration.

IC50: < 100 nM
SMILES: N=C(N)c1csc(CNC(=O)[C@@H]2[C@@H]3CC[C@@H](C3)N2C(=O)CNC(=O)c2ccc(Oc3ccccc3)cc2)c1

The match of structure and compound is tentative.
